Measured values as given in PubChem BioAssay AID1671190 (National Center for Advancing Translational Sciences (NCATS), 2021).
Hit rate of the full screen: of about 580,000 compounds, about 6,100 (1.1%) were called active. Only results without a clear call are listed here; the source files them as inconclusive. The call rests on the fitted dose curve; in most records, active means well fitted inhibition curve with a large enough effect; inconclusive means small, poorly fitted or top-dose-only effect, or another doubt; inactive means no such curve, though single readings can be large or run the other way. Some results for these compounds are left out of this collection, so the calls shown say nothing about other tests.

Protein sequences, listed by entry. Tags and fused reporters are not part of them.
UniProt P18054, whole entry: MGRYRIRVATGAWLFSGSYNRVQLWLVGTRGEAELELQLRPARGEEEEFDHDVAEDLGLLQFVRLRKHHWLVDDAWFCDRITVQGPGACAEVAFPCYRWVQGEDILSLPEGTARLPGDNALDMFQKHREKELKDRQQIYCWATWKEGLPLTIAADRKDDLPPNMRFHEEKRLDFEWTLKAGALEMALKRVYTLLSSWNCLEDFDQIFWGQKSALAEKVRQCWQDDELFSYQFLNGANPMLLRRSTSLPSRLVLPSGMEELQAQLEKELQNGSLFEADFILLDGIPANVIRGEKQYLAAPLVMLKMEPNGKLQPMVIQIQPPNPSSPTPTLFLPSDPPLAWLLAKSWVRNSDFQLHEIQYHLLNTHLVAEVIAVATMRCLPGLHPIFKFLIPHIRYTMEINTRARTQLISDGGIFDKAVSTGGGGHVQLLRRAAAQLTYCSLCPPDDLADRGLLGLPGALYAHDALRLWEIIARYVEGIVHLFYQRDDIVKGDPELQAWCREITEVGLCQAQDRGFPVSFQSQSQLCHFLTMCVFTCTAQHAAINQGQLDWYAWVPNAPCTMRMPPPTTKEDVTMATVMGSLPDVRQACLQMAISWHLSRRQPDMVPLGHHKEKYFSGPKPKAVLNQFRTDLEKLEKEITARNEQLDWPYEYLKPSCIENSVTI

target: Polyunsaturated fatty acid lipoxygenase ALOX12 (Homo sapiens) (UniProt P18054); assay: Primary qHTS assay for inhibitors of human arachidonate 12S-lipoxygenase (ALOX12): Round 2; conditions: purified 12hLO, xylenol orange hydroperoxide absorbance
Source text: Assay Provider: Theodore R. Holman Ph.D. University of California, Santa Cruz, California Human lipoxygenase 12hLO is a member of the closely related lipoxygenase family of enzymes which catalyze the site-specific oxidation of arachidonic acid to various hormone precursor molecules and as such is a candidate for drug development in a variety of disease areas, such as cancer and inflammation. Inhibition of 12hLO activity was screened by utilizing arachidonic acid as a substrate. The extent of hydroperoxide product formation was measured by a secondary chromogenic reaction in which xylenol orange (XO, Sigma-Aldrich, cat. number 39,818-7) reacts with the ferric ions produced from the reaction between the hydroperoxide and ferrous ions. The Fe (III)-XO complex is characterized with red-shifted absorbance at 560 nm. A purified preparation of human 12hLO was supplied by Dr. Holman laboratory, University of California, Santa Cruz.
PROTOCOL TABLE SEQUENCE No. (e.g., 1, 2, 3, etc.); […] (e.g., Cells, Incubation, Reagent, etc.); VALUE; DESCRIPTION 1; Enzyme; 3 uL; 150 nM 12hLO enzyme solution dispensed in 1536-well Greiner black, clear bottom plates. 2; Compound; 23 nL; compounds and controls were added. 3; Incubate; 15 min; room temperature. 4; Substrate; 1 uL; 40 uM arachidonic acid (final concentration). 5; Incubate; 30 min; room temperature. 6; Reagent; 4 uL; Fe-XO solution was added to each well. 7; Incubation; 30 min; room temperature 8; Detector; absorbance; Read 1 at 405 nm absorbance using ViewLux (Perkin-Elmer) CCD imager. 9; Detector; absorbance; Read 2 at 573 nm absorbance using ViewLux (Perkin-Elmer) CCD imager. NOTES (numbers refer to sequence above) 1; 150 nM 12hLO (final concentration) in buffer solution (25 mM Hepes, 0.01% Triton X-100, pH 7.0) was dispensed in columns 1, 2, 5-48. Column 1 is neutral (100% activity). Buffer only was dispensed in columns 3 and 4 as no enzyme negative controls. The plates were covered with metal lids with gas-exchange holes. 2; Compounds were pin transferred via a Kalypsys Pin Tool (Wako USA) in column 5-48. Control compound was transferred in column 2, titration of nordihydroguaiaretic acid (NDGA, Sigma-Aldrich, N5023) with top concentration of 20 mM in DMSO then 1:3 dilution in duplicate. Dilution factor of 23 nL into 4 uL final assay volume. 3; Covered assay plates were incubated for 15 min at room temperature. 4; Substrate was added to start the reaction; 40 uM arachidonic acid (Sigma-Aldrich, St. Louis, MO) was dispensed throughout the plate. 6; Chromogenic detection reagent solution (divalent iron/xylenol orange, Fe-XO) was added to each well: 200 uM xylenol orange, 300 uM ferrous ammonium sulfate prepared freshly in 50 mM sulfuric acid. 8, 9; Two absorbance readouts were obtained at 405 nm and at 573 nm using a ViewLux high-throughput CCD plate imager (Perkin-Elmer). The 573 to 405 (Read 2 / Read 1) absorbance ratio was used to compute reaction progress.
Potency means the concentration at half of the fitted maximal effect.

Compound | Potency
COc1cccc(C(=O)NCC2(N3CCOCC3)CCCCC2)c1 | inconclusive: 25.1 µM
CC(C)COc1ccc(C(=O)NCC2(N(C)C)CCCCC2)cc1 | inconclusive: 50.1 µM
CC(CCN(CCCl)CCCl)c1ccccc1 (stereo not drawn) | inconclusive: 7.08 µM
O=C(CCC1CCCCC1)N1CCN(C/C=C/c2ccccc2)CC1 | inconclusive: 112 µM
CN(C)C1CCCC1OC(=O)C(O)(c1ccccc1)c1ccccc1 (stereo not drawn) | inconclusive: 44.7 µM
CCOc1ccccc1C(=O)NCC1(N(C)C)CCCCC1 | inconclusive: 28.2 µM
CCN1CCCC(OC(=O)C2(O)c3ccccc3C=Cc3ccccc32)C1 (stereo not drawn) | inconclusive: 22.4 µM
Cc1cc(C(=O)NCC2(N3CCCCC3)CCCCC2)ccc1[N+](=O)[O-] | inconclusive: 70.8 µM
